Measurements as given in patent US20210378591A1, “PROCESS FOR VISUAL DETERMINATION OF TISSUE BIOLOGY” (UNIVERSITY COLLEGE DUBLIN, NATIONAL UNIVERSITY OF IRELAND, …, priority 2018, published 2021).

Assay: Dynamic visual analysis (DVA) of ICG NIR fluorescence intensity, rectal lesion versus healthy background tissue
Conditions: over 25-30 minutes

Structure (SMILES): CC1(C)C(/C=C/C=C/C=C/C=C2\N(CCCCS(=O)(=O)O)c3ccc4ccccc4c3C2(C)C)=[N+](CCCCS(=O)(=O)[O-])c2ccc3ccccc3c21 [ICG, indocyanine green]
- logarithmic trend lines of intensity trace, lesion versus background tissue (benign lesions, washout period): convergent over time
- logarithmic trend lines of intensity trace, lesion versus background tissue (cancerous tissue): divergent
